Data from PubChem BioAssay AID1347076 (National Center for Advancing Translational Sciences (NCATS), 2019).
The whole screen tested about 400,000 compounds, of which about 13,000 (3.2%) were called active. Inconclusive results, whose numbers are uncertain, are shown with a selection of clear calls. The call rests on the fitted dose curve; in most records, active means well fitted cell-killing curve with a large enough effect; inconclusive means small, poorly fitted or top-dose-only effect, or effect the other way; inactive means flat fitted curve, though single readings scatter. Potencies beside an inconclusive call are fits to weak or partial responses and may not hold up.

Assay: qHTS assay for MDR1-selective chemotherapeutics: Primary screen using the drug-selected MDR subline cells KB-V1; further: nearly all actives have a fitted effect of over 60% in size
Conditions: KB-V1 MDR cells viability, CellTiter-Glo, 72 h; activity change, negative = cytotoxicity: at 46.1 µM (top of the series)
Method in brief: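 qHTS viability screen in drug-selected KB-V1 MDR cells: 72 h compound treatment at 37 degrees C, ATP luminescence end point.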
On the % scale 0 is the no-effect control and ±100 the full control effect; potency means the concentration at half of the fitted maximal effect.

| SMILES | Potency | activity change, negative = cytotoxicity |
| --- | --- | --- |
| Cc1ccc(NC(=O)CS(=O)(=O)c2nc(-c3ccc(C)cc3)cn2-c2ccc(C)cc2)cc1 | inconclusive: 25.9 µM [cytotoxic, single point] |  |
| Cc1onc(-c2c(Cl)cccc2Cl)c1-c1nnc(-c2ccc(Cl)cc2)o1 | inconclusive: 29.1 µM [cytotoxic, single point] |  |
| COc1ccc(C2CC(c3ccc4ccccc4c3)=NN2C(=O)CNC2CCCCC2)cc1 (configuration not stated) | inconclusive: 20.6 µM [cytotoxic, single point] |  |
| Cc1nc(S(=O)(=O)c2ccc(Br)cc2)nc2c1CCC2 | inconclusive: 13 µM [cytotoxic, partial curve] |  |
| CCN(CC)c1ccc(C=Nc2cccc(S(=O)(=O)N3CCOCC3)c2)c(O)c1 | inconclusive: 13 µM [cytotoxic, partial curve, poor fit] |  |
| Cc1ccc(-c2nc(CSCC(=O)Nc3cc(C)on3)c(C)o2)cc1 | active: 23.1 µM |  |
| CC(C(=O)N1CCc2ccccc21)N1CCN(S(=O)(=O)c2ccc3c(c2)OCCCO3)CC1 (configuration not stated) | inconclusive: 18.4 µM [cytotoxic, single point] |  |
| COc1ccc(Cc2noc(-c3ccc([N+](=O)[O-])cc3)n2)cc1OC | inconclusive: 29.1 µM [cytotoxic, single point] |  |
| Cc1ccccc1C(=O)N1CCC(C(=O)OCc2nc(N)nc(Nc3ccccc3)n2)CC1 | inactive |  |
| Cc1ccc(C(=O)OCCN2CCN(c3ncc(C(F)(F)F)cc3Cl)CC2)cc1 | inactive |  |
| CC(=O)Nc1ccc(-c2csc(Nc3ccc(Cl)cn3)n2)cc1 | inconclusive: 5.8 µM [cytotoxic, partial curve] |  |
| CCOC(=O)c1cc(-c2ccccc2C)nn1CC1CC(c2ccc(OC)cc2)=NO1 (configuration not stated) | inconclusive: 29.1 µM [cytotoxic, single point] |  |
| Cc1cc2cc3n(c2nn1)N=C(Cl)CC3 | inconclusive: 16.4 µM [cytotoxic, single point] |  |
| CC1N(C(=O)N2CCOCC2)CCN1S(=O)(=O)c1cccc(C(F)(F)F)c1 (configuration not stated) | inactive |  |
| Cc1cc2ccccc2n1CCNC(=O)COc1ccccc1 | inactive |  |
| COc1ccc(C(C)=O)cc1Cn1c(C)c(C(=O)NCc2cccc(Cl)c2)sc1=O | inconclusive: 14.6 µM [cytotoxic, partial curve] |  |
| O=C(N/N=C/c1ccc([N+](=O)[O-])o1)c1ccc(NS(=O)(=O)c2cccs2)cc1 | inconclusive: 29.1 µM [cytotoxic, single point] |  |
| CC(Sc1nnc(-c2ccc(Cl)cc2Cl)n1Cc1ccccc1)C(=O)Nc1nccs1 (configuration not stated) | inconclusive: 29.1 µM [cytotoxic, single point] |  |
| CCCn1c(C)cc(C(=O)CSc2nc3nc(C)cc(C)n3n2)c1C | active: 6.51 µM |  |
| O=c1ccc(-c2ccc(S(=O)(=O)Nc3ccc(F)cc3)o2)n[nH]1 | inactive |  |
| COc1ccc(/C=C(/NC(=O)c2ccco2)C(=O)N2CCCCCC2)cc1OC | inconclusive: 20.6 µM [cytotoxic, single point] |  |
| CC(=O)N1CC(C)Sc2ccc(S(=O)(=O)NCCc3ccc(C)cc3)cc21 (configuration not stated) | inactive |  |
| O=C(Nc1cccnc1Cl)c1cc(-c2ccccc2O)on1 | inconclusive: 29.1 µM [rising, partial curve, poor fit] |  |

| SMILES | Potency | activity change, negative = cytotoxicity |
| --- | --- | --- |
| COc1cc(-c2cnc3c(NC=O)cc(-c4ccc(N5CCN(C)CC5)cc4)cn23)cc(OC)c1OC | inconclusive: 29.1 µM [cytotoxic, single point] |  |
| CCOc1ccccc1NC(=O)CN1C(=O)CC(c2ccco2)Sc2ccccc21 (configuration not stated) | active: 13 µM |  |
| CCc1ccc(-c2cc3c(=O)n(CC(=O)NCCCN4CCN(Cc5ccccc5)CC4)nc(C)n3n2)cc1 | inconclusive: 20.6 µM [cytotoxic, single point] |  |
| COc1ccc(NC(=O)CC(c2ccc(F)cc2)c2ccc(OC(C)C)cc2)cc1 (configuration not stated) | inconclusive: 5.8 µM [cytotoxic, partial curve, poor fit] |  |
| CCO/C(C)=N/n1c2nc3ccccc3nc2c2c(=O)n(C3CCCC3)c(C)nc21 | inconclusive: 14.6 µM [cytotoxic, partial curve] |  |
| COc1cccc(CNC(=O)[C@@H]2CCCN2C(=O)[C@@H]2CCCN2C(=O)c2ccc(Cl)cc2)c1 |  | inconclusive: 35.8% |
| Cc1cccc([C@@H]2[C@@H]3C(=O)N(Cc4ccccc4)C(=O)[C@@H]3[C@]3(C)C(=O)N(c4ccc(C(F)(F)F)cc4)C(=O)N23)c1 | inconclusive: 29.1 µM [cytotoxic, single point] |  |
| COc1ccc(N=C2SC(C(=O)Nc3ccc(F)cc3)CC(=O)N2C)cc1 (configuration not stated) | inconclusive: 11.6 µM [cytotoxic, partial curve] |  |
| Cc1cc(C)cc(NC(=S)N(Cc2ccc(Br)cc2)Cc2ccc(C(=O)O)cc2)c1 | inactive |  |
| COc1ccc(N2CCN(C(=O)c3cn(C4CCCC4)c(=O)c4c3c3ccccc3n4C)CC2)cc1 | inactive |  |
| CCOC(=O)c1ccc(N2C(=O)C(O)=C(C(C)=O)C2c2ccc([N+](=O)[O-])cc2)cc1 (configuration not stated) | inactive |  |
| Cc1cc(C)cc(NC(=O)/C=C/c2ccc([N+](=O)[O-])s2)c1 | inconclusive: 29.1 µM [cytotoxic, partial curve, poor fit] |  |
| C=CCNc1nc(NCc2ccc(NC(C)=O)cc2)c2sc(-c3ccccc3)cc2n1 | inconclusive: 23.1 µM [cytotoxic, partial curve, poor fit] |  |
| COc1ccc2c(c1)-c1c(ssc1=S)C(C)(C)N2S(=O)(=O)c1ccc(C)cc1 | active: 5.8 µM |  |
| Cc1cccc(C(=O)N(CCc2ccccc2)Cc2ccccc2)c1[N+](=O)[O-] | inconclusive: 32.6 µM [cytotoxic, single point] |  |
| O=C(c1ccc(Br)o1)N(c1ccccn1)C1CCCCC1 | inconclusive: 18.4 µM [cytotoxic, single point] |  |
| COC(=O)C1=C(C)NC(=O)C1(NC(=O)CN1CCCC1=O)C(F)(F)F (configuration not stated) |  | inconclusive: 32.6% |
| COc1cccc(Cn2c(-c3nonc3N)nc3ccccc32)c1 | active: 11.6 µM |  |
| O=C(C1CCCN(Cc2ccccc2C(F)(F)F)C1)N1CCCCC1 (configuration not stated) | inactive |  |
| COC(=O)[C@@H](NC(=O)c1ccc2c(c1)S(=O)(=O)c1ccccc1C2=O)C(C)C | inconclusive: 7.31 µM [cytotoxic, full curve, poor fit] |  |
| COc1cccc(CNC(=O)CCC2CCCN(C(=O)CCn3cncn3)C2)c1 (configuration not stated) | inactive |  |
| C=CCC[C@H](Cc1ccc(F)cc1)C(=O)OC[C@@H](C)NC(=O)[C@H](CC=C)CC(=O)NCCO | inconclusive: 10.3 µM [rising, partial curve] |  |
| O=C(c1ccc(CS(=O)Cc2ccccc2Cl)o1)N1CCN(c2ccccn2)CC1 (configuration not stated) | active: 18.4 µM |  |

An excerpt of these results, as labelled records.
COc1ccc(C2CC(c3ccc4ccccc4c3)=NN2C(=O)CNC2CCCCC2)cc1 (configuration not stated)
  Potency: inconclusive: 20.6 µM [cytotoxic, single point]
CCOc1ccccc1NC(=O)CN1C(=O)CC(c2ccco2)Sc2ccccc21 (configuration not stated)
  Potency: active: 13 µM
COC(=O)C1=C(C)NC(=O)C1(NC(=O)CN1CCCC1=O)C(F)(F)F (configuration not stated)
  activity change, negative = cytotoxicity: inconclusive: 32.6%

3 entries already listed, sorted by molecular weight, low to high:

| SMILES | Potency | activity change, negative = cytotoxicity |
| --- | --- | --- |
| COc1cccc(Cn2c(-c3nonc3N)nc3ccccc32)c1 | active: 11.6 µM |  |
| COC(=O)C1=C(C)NC(=O)C1(NC(=O)CN1CCCC1=O)C(F)(F)F (configuration not stated) |  | inconclusive: 32.6% |
| C=CCC[C@H](Cc1ccc(F)cc1)C(=O)OC[C@@H](C)NC(=O)[C@H](CC=C)CC(=O)NCCO | inconclusive: 10.3 µM [rising, partial curve] |  |

Further results follow.

| SMILES | Potency | activity change, negative = cytotoxicity |
| --- | --- | --- |
| CCn1c(SCC(=O)Nc2ccc3c(c2)oc2ccccc23)nnc1-c1ccc(N)cc1 | active: 18.4 µM |  |
| COc1ccccc1C(=O)NNC(=S)NC(=O)c1cc(OC)c(OC)c(OC)c1 | inactive |  |
| O=C(OCCN=C1NS(=O)(=O)c2ccccc21)c1cccc([N+](=O)[O-])c1 | inconclusive: 10.3 µM [rising, partial curve, poor fit] |  |
| CC(C)(C)C(=O)Nc1ccc(/C=C/C(=O)c2ccco2)cc1 | inactive |  |
| CCCc1cc(Nc2ccccc2OCC)n2ncnc2n1 | inconclusive: 32.6 µM [cytotoxic, single point] |  |
| CSCCC(NC(=O)C1CCCCC1)c1nc2ccccc2[nH]1 (configuration not stated) | inconclusive: 29.1 µM [cytotoxic, single point] |  |
| O=S(=O)(/N=C(/Nc1ccccn1)c1ccc(Cl)cc1)c1ccc(Cl)cc1 | inconclusive: 10.3 µM [cytotoxic, partial curve] |  |
| CC(=O)Oc1c(S(=O)(=O)c2ccc(C)cc2)c(C)nn1C(C)(C)C | inconclusive: 7.31 µM [cytotoxic, single point] |  |
| O=[N+]([O-])c1ccc(N2CCN(C(=S)Nc3ccc(F)cc3F)CC2)cc1 | inconclusive: 16.4 µM [cytotoxic, single point] |  |
| Cc1cc(NC(=O)C(C)SCC(=O)Nc2nnc(CC(C)C)s2)no1 (configuration not stated) | inconclusive: 14.6 µM [cytotoxic, partial curve] |  |
| C[C@@H]1CN([C@H](C)CO)S(=O)(=O)c2ccc(Br)cc2O[C@@H]1CN(C)C(=O)Nc1ccc(C(F)(F)F)cc1 | inconclusive: 32.6 µM [cytotoxic, partial curve, poor fit] |  |
| Cc1cccc(N(CC(=O)Nc2ccc(Br)cc2)S(C)(=O)=O)c1C | inactive |  |
| O=S(=O)(Nc1ccc(S(=O)(=O)N2CCOCC2)cc1)c1ccccc1 | inactive |  |
| O=C(O)c1cc(-c2ccco2)nc2cc3ccccc3cc12 | inconclusive: 1.3 µM [rising, full curve, poor fit] |  |
| Cc1ccc(CN2CC(C(=O)Nc3ccc(C)c(S(=O)(=O)N4CCCCC4)c3)CC2=O)cc1 (configuration not stated) | active: 20.6 µM |  |
| O=C(Nc1ccc(OC(F)F)cc1)Nc1cccc(C(F)(F)F)c1 | active: 13 µM |  |
| O=C(Nc1ccc(CN2CCOCC2)cc1)c1ccc(-c2cc(Cl)ccc2Cl)o1 | inconclusive: 18.4 µM [cytotoxic, partial curve] |  |
| O=C1c2nccnc2C(=O)N1Cc1ccccc1 | inconclusive: 16.4 µM [cytotoxic, single point] |  |
| C=CCN=C1SC(C)(C)C(=O)N1S(=O)(=O)c1ccc(C)cc1 | inactive |  |
| CC1CCN(CC(=O)NC(=O)NCc2ccccc2)CC1 | inconclusive: 23.1 µM [cytotoxic, partial curve, poor fit] |  |
| COc1ccc(/C=N/NC(=O)c2cccnc2)cc1CN1CCN(c2ccc(F)cc2)CC1 | inconclusive: 5.8 µM [cytotoxic, full curve] |  |
